# Measurements published in patent US9649381B2, “Transporter protein-coupled nanodevices for targeted drug delivery” (Wayne State University, priority 2013, dated 2017).
# Some results were stated once for a whole list of compounds, not compound by compound.
# System: rat spinal cord injury model animals
# Assay: Chronic systemic drug administration, persistence of hemidiaphragm recovery in spinal cord injury model animals
# Type: in vivo
# Settings: longest interval studied
# Source text: Chronic administrations of theophylline, however, induce plasticity in the respiratory pathways which results in recovery that persists for days. Specifically, three days of orally administered theophylline three times per day (for a total of nine doses) was sufficient to bring about and maintain respiratory recovery that persisted for about 3 days, about 7 days, about 12 days, and about 30 days after the last drug administration in separate groups of animals.
# Theophylline is both an adenosine receptor antagonist and a phosphodiesterase (PDE) inhibitor. Chronic administration of rolipram (a PDE-4 specific inhibitor), pentoxifylline (a general PDE inhibitor), or DPCPX (an adenosine A1 receptor antagonist) also induce persistent functional recovery of a paralyzed hemidiaphragm in rat spinal cord injury model animals for as long as 10 days, the longest interval studied, after the animal is last exposed to the drugs. Although rolipram and pentoxifylline have been approved for clinical use, these “first generation” PDE inhibitors can induce the same side effects as theophylline, including nausea and vomiting.
row,SMILES,persistent functional recovery of paralyzed hemidiaphragm after last exposure to drug [days]
1,COc1ccc(C2CNC(=O)C2)cc1OC1CCCC1 (stereo not drawn) [rolipram],≥ 10
2,CC(=O)CCCCn1c(=O)c2c(ncn2C)n(C)c1=O [pentoxifylline],≥ 10
3,"CCCn1c(=O)c2[nH]c(C3CCCC3)nc2n(CCC)c1=O [DPCPX, 1,3-dipropyl-8-cyclopentylxanthine]",≥ 10
